## Library compounds against nucleic acid targets

From ROBIN, a set of small-molecule microarray screens (doi:10.1002/anie.202211358).

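The test is a small-molecule microarray: each compound is printed twice on a reactive slide, and binding shows as fluorescence of the labelled oligonucleotide after washing. For the PreQ1, TPP and SAM-II riboswitches the laboratory earlier reported (doi:10.1038/s41467-019-09493-3) 1 µM RNA, 2 h, and a rule that included a mean Z-score above 3 (spot signal-to-noise against the whole library), a score well above that on a control array, and duplicate spots agreeing (coefficient of variation under 100). The data file gives only the calls; its cut-offs may differ, and compounds hitting several targets are kept. These are primary screening calls, not affinities; a compound without a hit may have attached poorly or may still bind in solution.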
“active” means called a hit, “inactive” means screened and not called a hit.
Compounds were drawn at random from those tested, without regard to their results.

Oligonucleotides screened, 5′ to 3′:
TPP: TPP riboswitch RNA three-way junction, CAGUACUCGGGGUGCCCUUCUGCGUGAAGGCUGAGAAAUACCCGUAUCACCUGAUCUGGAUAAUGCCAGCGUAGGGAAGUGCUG. About 160 hits among about 24,000 compounds.

compound,TPP
CCn1ccnc1CN(C)C(=O)c1ccc(C2CCNC2)cc1 (configuration not stated),inactive
O=S1(=O)C[C@H](NCC2CCCO2)[C@@H](S(=O)(=O)c2ccccc2)C1 (some centres not stated),inactive
CCCCOc1c(C(=O)c2c(F)cc(C)cc2F)cnc2[nH]ncc12,inactive
C=CCNC(=S)Nc1ccc(OC(=O)Nc2ccc(Cl)c(Cl)c2)cc1,inactive
CCc1n[nH]c2c1C1(C(C#N)=C(N)O2)c2ccccc2-c2ccccc21,inactive
COc1cccc(Nc2c(-c3ccc(C(C)C)cc3)c(=O)c2=O)c1,inactive
Nc1c(C(=O)Nc2ccc(Cl)cc2F)sc2nc(-c3ccncc3)ccc12,inactive
CCc1ccc(CNc2ccc3c(c2)ncn3CC)cc1,inactive
NC1=C(c2nc3ccccc3[nH]2)C(=O)CN1c1cc(Cl)cc(Cl)c1,inactive
CCOC(=O)c1cnc2c(OC)cccc2c1Nc1c(F)cccc1F,inactive
O=C(CCO)N(CC1CCN(Cc2ccccc2F)CC1)CC1CCCO1 (configuration not stated),inactive
Nc1ccc2nn(-c3cc([N+](=O)[O-])ccc3O)nc2c1,inactive
Cn1cc(CCCNc2ncnc3c2CCNCC3)cn1,inactive
Cc1c(S(=O)(=O)c2ccc(F)cc2)c(N)n(C(C)C)c1C,inactive
OCCn1nc(-c2cccnc2)nc1CSc1ccccn1,inactive
COc1ccc(C(=O)O)cc1NCc1ccccn1,inactive
O=S1(=O)CCC(N(/N=C/c2ccco2)c2ccccc2)C1 (configuration not stated),inactive
CCCOCC1CC2(CC(C)(c3csc(Nc4ccccc4OC)n3)OC2=O)C(=O)O1 (configuration not stated),inactive
COc1cc(CNC(C)c2ccccc2)ccc1OCc1ccc2c(c1)n(C)c(=O)n2C (configuration not stated),inactive
Cc1ccccc1Nc1nc(-c2ccncc2)cs1,inactive
COc1ccc(F)c(-c2cnc(N)nc2)c1,inactive
Nc1ccc(-c2nc3nc(N)nc(N)c3nc2-c2ccc(N)cc2)cc1,inactive
O=C1OCCN1CCNCC1(O)CCCN(Cc2ccccc2F)C1=O (configuration not stated),inactive
OCc1ccccc1O[C@@H]1O[C@H](CO)[C@H](O)[C@H](O)[C@H]1O,inactive
COCCc1nc(-c2ccccc2-c2ccccc2)n(CCO)n1,inactive
CS(=O)(=O)c1sc2nc(-c3cccs3)cc(-c3ccccc3)c2c1N,inactive
Cc1cc(Nc2cccc(Cl)c2)n2nc(-c3ccccc3)nc2n1,inactive
COc1sc2c(c(=O)c1N)CCCC2,inactive
CCOC(=O)C1CCN(c2c(NC3CCCC(C)C3C)c(=O)c2=O)CC1 (configuration not stated),inactive
O=S(=O)(c1ccc2nc(NCc3ccccc3Cl)cnc2c1)N1CCCCC1,inactive
Cc1ccccc1NC1=C(C(N)=O)S(=O)(=O)c2ccccc21,inactive
Cc1cccc(-n2cc(CN(C)CC3(CO)CC3)cn2)c1,inactive
c1ccc(CCNc2nc(-c3ccccc3)nc3ccccc23)cc1,inactive
O=C(O)CCCCCNC1CCS(=O)(=O)C1 (configuration not stated),inactive
CCN(CC)C(=O)C1C(=O)N(CCO)C2(C)CC1c1ccccc1O2 (configuration not stated),inactive
CCOc1ccccc1NC1c2ccccc2C(=O)N1c1cccnc1 (configuration not stated),inactive
COc1cccc(Nc2c(-c3cc(Br)ccc3O)nc3cnccn23)c1,inactive
O=c1[nH]c(NCCC(c2ccc(F)cc2)c2ccco2)nc2c1CCNC2 (configuration not stated),active
O=C1NCCNC12CCN(Cc1cc3c(cc1Cl)OCO3)CC2,inactive
Cc1ccc(Nc2c(S(=O)(=O)c3ccccc3)cnc3ccccc23)cc1C,inactive
NCCCN1C(=O)CC[C@H]2CN(c3nc(-c4ccccc4)no3)CC[C@H]21,inactive
O=c1cc(CN2CCN(CCO)CC2)c2cc(O)c(-c3ccccc3)cc2o1,inactive
COc1ccccc1-c1cnn2c(NCCC(C)C)cc(C)nc12,inactive
Cc1cc(C)cc(NC(=O)Cn2nnc(C(=O)Nc3ccc(F)c(Cl)c3)c2N)c1,inactive
CCCN1CCC(NC(c2ccncc2)c2ccccc2C)CC1 (configuration not stated),inactive
O=C(c1ccc2occc2c1)N1CCc2ncnc(NCCO)c2CC1,inactive
NCCN1CCC(O)CC1,inactive
Nc1ccc(O)c(-c2nc3ncccc3o2)c1,inactive
CC(O)c1nc2ccccc2n1CCC1CCCCC1 (configuration not stated),inactive
CNCCCn1cc(-c2cccc(C)c2C)nn1,inactive
COc1ccc(CC(=O)c2ccc(O)cc2O)cc1,inactive
OC1CCCOC12CCN(c1ncc(F)c(N3CCOCC3)n1)CC2 (configuration not stated),inactive
OCCC[C@@H]1CN(Cc2ccc(Cl)s2)CC[C@@H]1N1CCOCC1,inactive
Cc1cccc2[nH]c(C3CCN(Cc4cc(C#CCO)cs4)CC3)nc12,inactive
CC(C)(C)c1n[nH]c2c1C(c1cc(Br)ccc1F)C(C#N)=C(N)O2 (configuration not stated),inactive
Cc1ccc(C)c(NC(=O)Cn2nnc(C(=O)Nc3c(C)cccc3C)c2N)c1,inactive
C=CCNC(=O)c1sc(=S)n(CC)c1N,inactive
Cc1ccc(CNC(=O)c2nnn(Cc3cccc(C(F)(F)F)c3)c2N)cc1,inactive
O=C(O)c1ccc(Nc2ncnc3scc(-c4ccccc4)c23)cc1,inactive
NC(=O)c1ccc(/N=N/c2c(O)c3ccccc3[nH]c2=O)cc1,inactive
CCN(CC)CCNc1nc(C)nc2c1sc1nc3c(cc12)COC(C)(C)C3,inactive
CCOC(=O)C1CCCN(c2c(NCCc3cccc(C)c3)c(=O)c2=O)C1 (configuration not stated),inactive
CC1(C)Cc2c(c(-c3ccoc3)nc3oc(C(=O)c4ccccc4)c(N)c23)CO1,inactive
CN(Cc1cc(C(C)(C)C)n[nH]1)C(=O)c1cccc(CC2CCNCC2)c1,inactive
CC(=O)c1ccccc1Nc1c(C(C)=O)nnn1-c1ccc(Cl)cc1,inactive
CCCc1nnc(NC(=O)CNCc2nnc3n2CCCCC3)s1,inactive
Cn1c(N2CCC3(CC2)OCCCC3O)nc2c1c(=O)[nH]c(=O)n2C (configuration not stated),inactive
COc1ncccc1C(=O)N1C[C@H](O)[C@@H](N2CCOCC2)C1,inactive
CNCC(=O)NC1CC(=O)N(c2ccccc2OC)C1 (configuration not stated),inactive
OCc1nc2ccccc2n1CCOc1ccccc1,inactive
CCOc1ccc([C@@H]2C[C@H](c3cccc(Br)c3)n3nc(N)nc3N2)cc1,inactive
Cn1c(CCNC(=O)C2NCCc3[nH]cnc32)nc2ccccc21 (configuration not stated),inactive
CCC(C)(Oc1ccc(C2(c3ccc(OC(C)(CC)C(=O)O)cc3)CCCCC2)cc1)C(=O)O (configuration not stated),inactive
COCCn1cc(-c2csc(N)n2)c2ccccc21,inactive
Cc1nc(N2CCN(C(=O)CN3CC(=O)NC3=O)CC(O)C2)no1 (configuration not stated),inactive

For reference, 4 entries once more:

* OC1CCCOC12CCN(c1ncc(F)c(N3CCOCC3)n1)CC2 (configuration not stated) : TPP: inactive
* Cc1ccc(Nc2c(S(=O)(=O)c3ccccc3)cnc3ccccc23)cc1C : TPP: inactive
* CCOc1ccc([C@@H]2C[C@H](c3cccc(Br)c3)n3nc(N)nc3N2)cc1 : TPP: inactive
* CCc1n[nH]c2c1C1(C(C#N)=C(N)O2)c2ccccc2-c2ccccc21 : TPP: inactive